Protein sequences, listed by entry. Tags and fused reporters are not part of them.
UniProt Q86VP6: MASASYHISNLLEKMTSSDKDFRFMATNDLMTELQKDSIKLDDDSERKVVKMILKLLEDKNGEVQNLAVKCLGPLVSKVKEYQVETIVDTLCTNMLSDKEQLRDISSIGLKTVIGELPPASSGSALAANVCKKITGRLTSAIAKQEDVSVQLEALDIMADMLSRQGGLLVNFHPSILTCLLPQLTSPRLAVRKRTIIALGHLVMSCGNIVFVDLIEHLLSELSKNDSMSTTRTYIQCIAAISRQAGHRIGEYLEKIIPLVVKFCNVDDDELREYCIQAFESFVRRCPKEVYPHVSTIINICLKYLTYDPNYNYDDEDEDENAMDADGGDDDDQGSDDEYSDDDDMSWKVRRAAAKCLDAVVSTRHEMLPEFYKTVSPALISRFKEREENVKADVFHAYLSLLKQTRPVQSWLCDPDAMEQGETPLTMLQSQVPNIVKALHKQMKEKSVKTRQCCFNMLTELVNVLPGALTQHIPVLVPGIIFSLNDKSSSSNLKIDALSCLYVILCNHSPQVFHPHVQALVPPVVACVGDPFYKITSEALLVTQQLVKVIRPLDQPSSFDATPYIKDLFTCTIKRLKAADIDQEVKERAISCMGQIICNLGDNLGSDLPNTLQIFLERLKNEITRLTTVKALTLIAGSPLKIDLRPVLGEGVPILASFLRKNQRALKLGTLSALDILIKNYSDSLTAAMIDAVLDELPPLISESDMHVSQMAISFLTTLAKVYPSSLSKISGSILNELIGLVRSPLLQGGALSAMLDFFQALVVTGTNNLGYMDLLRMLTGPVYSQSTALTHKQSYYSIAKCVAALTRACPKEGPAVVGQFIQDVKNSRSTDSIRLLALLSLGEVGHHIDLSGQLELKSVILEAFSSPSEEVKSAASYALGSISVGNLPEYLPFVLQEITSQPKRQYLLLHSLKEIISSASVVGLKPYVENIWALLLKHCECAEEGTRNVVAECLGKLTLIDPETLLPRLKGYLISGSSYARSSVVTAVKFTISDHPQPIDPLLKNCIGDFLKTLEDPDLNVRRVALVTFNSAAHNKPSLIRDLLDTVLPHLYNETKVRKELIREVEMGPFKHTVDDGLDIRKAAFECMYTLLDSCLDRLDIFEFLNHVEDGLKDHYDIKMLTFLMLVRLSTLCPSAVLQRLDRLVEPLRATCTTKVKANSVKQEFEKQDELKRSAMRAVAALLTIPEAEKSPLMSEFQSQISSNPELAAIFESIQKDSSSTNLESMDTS
UniProt Q93034: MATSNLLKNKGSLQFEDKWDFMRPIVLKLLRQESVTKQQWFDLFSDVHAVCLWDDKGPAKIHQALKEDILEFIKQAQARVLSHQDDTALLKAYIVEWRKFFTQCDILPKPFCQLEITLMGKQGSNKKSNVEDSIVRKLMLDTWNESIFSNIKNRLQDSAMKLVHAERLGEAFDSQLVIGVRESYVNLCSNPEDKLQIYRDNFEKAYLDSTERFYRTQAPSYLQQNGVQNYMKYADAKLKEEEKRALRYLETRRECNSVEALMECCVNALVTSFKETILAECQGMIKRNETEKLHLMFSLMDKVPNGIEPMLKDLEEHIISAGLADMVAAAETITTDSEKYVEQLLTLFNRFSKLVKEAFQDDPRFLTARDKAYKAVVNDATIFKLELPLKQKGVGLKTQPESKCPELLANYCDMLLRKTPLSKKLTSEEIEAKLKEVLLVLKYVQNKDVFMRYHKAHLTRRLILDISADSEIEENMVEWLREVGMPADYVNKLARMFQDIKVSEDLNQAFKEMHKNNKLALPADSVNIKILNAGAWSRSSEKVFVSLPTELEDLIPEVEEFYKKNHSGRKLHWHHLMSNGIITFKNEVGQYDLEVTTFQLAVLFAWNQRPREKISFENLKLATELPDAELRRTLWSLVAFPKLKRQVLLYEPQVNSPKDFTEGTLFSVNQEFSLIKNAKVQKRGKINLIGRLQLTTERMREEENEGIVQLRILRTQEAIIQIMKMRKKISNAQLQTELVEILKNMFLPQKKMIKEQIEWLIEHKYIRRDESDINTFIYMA

According to article PMC3020946:

Biological target: N-terminally FLAG-tagged and C-terminally HA-tagged CAND1 (human) (UniProt Q86VP6)
Test: affinity purification with mass spectrometry; anti-FLAG immunoprecipitation of FLAG-CAND1-HA from tetracycline-induced stable HEK293 cells; hypotonic lysis buffer (25 mM Tris, 2 mM EDTA, 2 mM EGTA); washed four times with 1X PBS; SDS-PAGE, Coomassie; bands of about 85 kDa identified by mass spectrometry

“Cul5 (endogenous, HEK293) (from UniProt Q93034 1-780)” was tested, and the binding was “binds”.

No constants are given. Whether binding was seen depends on the method and setting. In cells and extracts the contact can be indirect. Here binding means that the protein was enriched with, or labelled near, the bait; the list need not be complete.
